Values from PubChem BioAssay AID652272 (Drosophila RNAi Screening Center, 2013)
The screen tested about 21,000 reagents; below is an unselected part of those with a known target gene and a result. Of all reagents, 503 (2.4%) got an active call. 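Raw plate light values, not normalised; calls rest on replicate z-scores that were not deposited; hits include reporter decreases as well as increases.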 Not given: the amount of reagent, the time to read-out.

Aim: 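Genome-wide knock-down search for components of Hedgehog signalling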 (primary screen)
System: Drosophila clone 8 (Cl8) cells
Knock-down reagent: long dsRNA against Drosophila genes
Read-out: 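Plate reader light from a firefly reporter under a ptc promoter fragment that responds to Hedgehog, with Renilla light as transfection reference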
Direction: firefly Hh reporter signal: higher = more ptc reporter light; Renilla reference signal: higher = more Renilla control light
Rule for the call: 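Hit when the z-score averaged over two replicates is under -2 or over +3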
Calls: active = hit: reporter lowered or raised; inactive = not a hit

CG9416 [DRSC07339] | firefly Hh reporter signal, replicate 1: 72353; firefly Hh reporter signal, replicate 2: 88336; Renilla reference signal, replicate 1: 2249; Renilla reference signal, replicate 2: 5851; Call: inactive
Prm [DRSC08941] | firefly Hh reporter signal, replicate 1: 83697; firefly Hh reporter signal, replicate 2: 2.34e5; Renilla reference signal, replicate 1: 2326; Renilla reference signal, replicate 2: 7881; Call: inactive
Prm [DRSC08942] | firefly Hh reporter signal, replicate 1: 91372; firefly Hh reporter signal, replicate 2: 2.61e5; Renilla reference signal, replicate 1: 2962; Renilla reference signal, replicate 2: 11002; Call: inactive
Prm [DRSC11255] | firefly Hh reporter signal, replicate 1: 1.46e5; firefly Hh reporter signal, replicate 2: 92112; Renilla reference signal, replicate 1: 6204; Renilla reference signal, replicate 2: 4085; Call: inactive
Naa20A [DRSC19579] | firefly Hh reporter signal, replicate 1: 1.05e5; firefly Hh reporter signal, replicate 2: 1.21e5; Renilla reference signal, replicate 1: 2267; Renilla reference signal, replicate 2: 2472; Call: inactive

No new results follow: entries from further up.
Prm [DRSC08941] | firefly Hh reporter signal, replicate 1: 83697; firefly Hh reporter signal, replicate 2: 2.34e5; Renilla reference signal, replicate 1: 2326; Renilla reference signal, replicate 2: 7881; Call: inactive
Prm [DRSC08942] | firefly Hh reporter signal, replicate 1: 91372; firefly Hh reporter signal, replicate 2: 2.61e5; Renilla reference signal, replicate 1: 2962; Renilla reference signal, replicate 2: 11002; Call: inactive

More results follow.
Pex3 [DRSC10731] | firefly Hh reporter signal, replicate 1: 1.03e5; firefly Hh reporter signal, replicate 2: 59677; Renilla reference signal, replicate 1: 3617; Renilla reference signal, replicate 2: 2801; Call: inactive
CG12780 [DRSC06169] | firefly Hh reporter signal, replicate 1: 1.06e5; firefly Hh reporter signal, replicate 2: 62715; Renilla reference signal, replicate 1: 2861; Renilla reference signal, replicate 2: 5171; Call: inactive
myo [DRSC17174] | firefly Hh reporter signal, replicate 1: 1.65e5; firefly Hh reporter signal, replicate 2: 87338; Renilla reference signal, replicate 1: 3697; Renilla reference signal, replicate 2: 3237; Call: inactive
CG7800 [DRSC16315] | firefly Hh reporter signal, replicate 1: 97362; firefly Hh reporter signal, replicate 2: 1.47e5; Renilla reference signal, replicate 1: 3949; Renilla reference signal, replicate 2: 4237; Call: inactive
betaNACtes1 [DRSC19534] | firefly Hh reporter signal, replicate 1: 1.21e5; firefly Hh reporter signal, replicate 2: 2.81e5; Renilla reference signal, replicate 1: 3031; Renilla reference signal, replicate 2: 10744; Call: inactive
insb [DRSC06995] | firefly Hh reporter signal, replicate 1: 66344; firefly Hh reporter signal, replicate 2: 56280; Renilla reference signal, replicate 1: 1529; Renilla reference signal, replicate 2: 3696; Call: inactive
CG14089 [DRSC10093] | firefly Hh reporter signal, replicate 1: 82448; firefly Hh reporter signal, replicate 2: 1.02e5; Renilla reference signal, replicate 1: 3012; Renilla reference signal, replicate 2: 2832; Call: inactive
